Patent US11813305B2, “Endoplasmic reticulum stress as a predictive tool in cancer therapy and a combination therapy for the treatment of cancer” (IMMUNE SYSTEM KEY LTD., priority 2016, dated 2023)
Part of at least one peptide drawing is inferred or uncertain, most often the ends. Square brackets hold non-standard residues; d marks the D form. Peptide text beside a SMILES is read from it.

What was measured:
[1] = tested on: OV90 ST2 knock-out (KO) cells; experiment: ImmunoCytoChemistry of OV90 ST2 KO cells treated with dTCApFs; assay type: cell-based, human; conditions: 50 μg/ml dTCApFs
BiP = BiP staining of tissues obtained by biopsy (spinal cord neoplasm patient); assay type: in vivo, human; conditions: before treatment vs after 11 month of treatment, FIG. 2
[2] = tested on: locally advanced and/or metastatic solid malignancies; experiment: Antitumor activity (RECIST v1.1, PFS), phase I study; assay type: in vivo, human
TGF-β1 = experiment: Serum level of angiogenic factor by ELISA, patients on dTCApFs; assay type: in vivo, human
[3] = tested on: human pancreatic cancer cells (BxPC3); experiment: BrdU incorporation assay; assay type: cell-based; conditions: dTCApFs alone at 25 ug/ml, FIG. 13B
Protocol: (§1) Cells were placed at 2,000 cells/well in the middle of a 96 well plate with 100 μl DMEM (life science 41965-039) and 10% fetal calf serum (FBS, Biological industries 14-127-1A) for 24 hours in an incubator at 37° C. with 5% CO2. The medium was then replaced to 200 μl DMEM with 2.5% FBS and Taxol (sigma T7402) at a final concentration of 2 nM or 4 nM in DMSO or dTCApFs (nextar ISK353-01 batch 351-01/1.68) at a final concentration of 25 μg/ml in DMSO. The medium in the control cells was replaced by DMEM and FBS as indicated above. The maximal concentration of DMSO in the cell wells was less than 0.5%. Four wells were used for each concentration.
(§2) Taxol- and dTCApFs-treated cells as well as the control cells were further incubated for 24 hours in the presence of BrdU as follows: 20 μl BrdU reagent (diluted 1:100 in DMEM supplemented with 2.5% FBS) was added to the cells and the plate was incubated 24 hours in 37° degrees incubator with 5% CO2. BrdU ELISA was performed according to the kit protocol (Millipore #2752).
(§3) Cells were placed at 2000 cells/well in the middle of a 96 well plate with 100 μl DMEM and 10% FBS for 24 hours in an incubator at 37° C. with 5% CO2. The medium was then replaced to 200 μl DMEM with 2.5% FBS and dTCApFs at a final concentration of 25 μg/ml (nextar ISK353-01 batch 351-01/1.68) in DMSO. The maximal concentration of DMSO in the cells wells was less than 0.5%. […]

[4] = tested on: human ovarian cancer cells (OV90); experiment: BrdU incorporation assay; assay type: cell-based; conditions: dTCApFs alone at 25 μg/ml, FIG. 13A
Protocol: as §1, §2, §3

IL-12p70 = experiment: Serum level of cytokine by ELISA, patients on dTCApFs; assay type: in vivo, human
Panc02 cells = experiment: Pancreatic cancer tumors in mice, dTCApFs and anti-PDL1 antibody; assay type: in vivo, C57B16 mice; conditions: dTCApFs alone, three times per week at 1 mg/kg, FIG. 21
PDGF-AA = experiment: Serum level of angiogenic factor by ELISA, patients on dTCApFs; assay type: in vivo, human

## CC(C)C[C@@H](NC(=O)[C@H](NC(=O)[C@@H](CO)NC(=O)[C@H]1CCCN1C(=O)[C@@H](CC(C)C)NC(=O)[C@@H](Cc1ccccc1)NC(=O)[C@@H](Cc1ccccc1)NC(=O)[C@H](NC(=O)[C@@H](Cc1c[nH]c2ccccc12)NC(=O)[C@H](N)Cc1c[nH]c2ccccc12)[C@H](C)O)[C@H](C)O)C(=O)N[C@H](Cc1c[nH]c2ccccc12)C(=O)N[C@H](CCC(=O)O)C(=O)N[C@H](CCCNC(=N)N)C(=O)N[C@H](CCCCN)C(=O)O [dTCApFs, Trp Trp Thr Phe Phe Leu Pro Ser Thr Leu Trp Glu Arg Lys] (H-[dW][dW][dT][dF][dF][dL][dP][dS][dT][dL][dW][dE][dR][dK]-OH; N-terminus and C-terminus assumed)
[1]; 48 hrs + additional dose 24 hrs, FIG. 9C/9D
  effect on the Golgi apparatus (β-cop staining): no effect of dTCApFs on the Golgi apparatus was observed
[1]; FIG. 10C/10D
  BiP expression (staining): no differences in the staining of BiP
BiP
  level of BiP (ER stress) in tumor biopsy: increased ER stress
[2]; 17 patients
  patients with a longer PFS on dTCApFs compared to their prior regimen: 6
[2]; Patient no. 1
  PFS on dTCApFs: 53 days
[2]; Patient no. 2
  PFS on dTCApFs: 25 days
[2]; Patient no. 3
  PFS on dTCApFs: 170 days
[2]; Patient no. 4
  PFS on dTCApFs: 330 days
[2]; Patient no. 5
  PFS on dTCApFs: 51 days
[2]; Patient no. 6
  PFS on dTCApFs: 110 days
[2]; Patient no. 7
  PFS on dTCApFs: 90 days
[2]; Patient no. 8
  PFS on dTCApFs: 52 days
[2]; Patient no. 9
  PFS on dTCApFs: 60 days
[2]; Patient no. 10
  PFS on dTCApFs: 14 days
[2]; Patient no. 11
  PFS on dTCApFs: 52 days
[2]; Patient no. 12
  PFS on dTCApFs: 50 days
[2]; Patient no. 13
  PFS on dTCApFs: 42 days
[2]; Patient no. 14
  PFS on dTCApFs: 40 days
[2]; Patient no. 15
  PFS on dTCApFs: 80 days
[2]; Patient no. 16
  PFS on dTCApFs: 45 days
[2]; Patient no. 17
  PFS on dTCApFs: 41 days
[2]; after 6 months of treatments (12, 24, and 48 mg/m^2)
  clinical outcome of one patient with spinal cord neoplasia: improved them walk without the need of any pain-killer medication
[2]; one patient who did not receive prior treatments (stained positive)
  time on the study drug: 330 days
[2]; patients with T1/ST2 positive tumors (IHC) vs T1/ST2 negative, FIG. 5
  time in the trial by T1/ST2 status: stayed in the trial longer
[2]; regression analysis, FIG. 8
  correlation between changes in tumor size and the administered dTCApFs doses: statistically significant correlation
[2]; treated for ≥3 months (12, 24, and 48 mg/m^2)
  patients who experienced stable disease (SD) throughout the treatment period: Five of the 17 patients
TGF-β1; 6 mg/m^2, n = 3
  TGF-β1, mean change in serum level from pre- to post- treatment with dTCApFs: +18%
TGF-β1; 12 mg/m^2, n = 3
  TGF-β1, mean change in serum level from pre- to post- treatment with dTCApFs: −80%
TGF-β1; 24 mg/m^2, n = 3
  TGF-β1, mean change in serum level from pre- to post- treatment with dTCApFs: −59%
TGF-β1; 48 mg/m^2, n = 3
  TGF-β1, mean change in serum level from pre- to post- treatment with dTCApFs: −20%
[3]
  cell viability (BrdU incorporation): only a minor effect on cell viability
[4]
  cell viability (BrdU incorporation): no effect on cell viability was observed
IL-12p70; 6 mg/m^2, n = 3
  IL12-p70, mean change in serum level from pre- to post- treatment with dTCApFs: +469%
IL-12p70; 12 mg/m^2, n = 3
  IL12-p70, mean change in serum level from pre- to post- treatment with dTCApFs: −76%
IL-12p70; 24 mg/m^2, n = 3
  IL12-p70, mean change in serum level from pre- to post- treatment with dTCApFs: +83%
IL-12p70; 48 mg/m^2, n = 3
  IL12-p70, mean change in serum level from pre- to post- treatment with dTCApFs: +477%
IL-12p70; 96 mg/m^2, n = 5
  IL12-p70, mean change in serum level from pre- to post- treatment with dTCApFs: +332%
Panc02 cells
  tumor size: tumor size increased in a time-dependent manner
PDGF-AA; 6 mg/m^2, n = 3
  PDGF-AA, mean change in serum level from pre- to post- treatment with dTCApFs: +1379%
PDGF-AA; 12 mg/m^2, n = 3
  PDGF-AA, mean change in serum level from pre- to post- treatment with dTCApFs: −92%
PDGF-AA; 24 mg/m^2, n = 3
  PDGF-AA, mean change in serum level from pre- to post- treatment with dTCApFs: −79%
PDGF-AA; 48 mg/m^2, n = 3
  PDGF-AA, mean change in serum level from pre- to post- treatment with dTCApFs: −73%
PDGF-AA; 96 mg/m^2, n = 5
  PDGF-AA, mean change in serum level from pre- to post- treatment with dTCApFs: +57%
